In publication PMC7718874, “Coupling of H3K27me3 recognition with transcriptional repression through the BAH-PHD-CPL2 complex in Arabidopsis” (Nature Communications, 2020):
No constants are given. Whether binding was seen depends on the method and setting. For part of these data: In cells and extracts the contact can be indirect. Some entries that bind do so weakly or less than the wild type. Where a sequence is shown, tags or fusion partners need not be part of it.

What was measured:
[1] = target: T1, CPL2, full-length, yeast two-hybrid fusion (Arabidopsis) (UniProt Q5YDB5); assay: two-hybrid; yeast two-hybrid, AD (pGADT7) and BD (pGBKT7) constructs, growth on SD -LW or -LWH plates, 30 °C, 3 d
T1 sequence: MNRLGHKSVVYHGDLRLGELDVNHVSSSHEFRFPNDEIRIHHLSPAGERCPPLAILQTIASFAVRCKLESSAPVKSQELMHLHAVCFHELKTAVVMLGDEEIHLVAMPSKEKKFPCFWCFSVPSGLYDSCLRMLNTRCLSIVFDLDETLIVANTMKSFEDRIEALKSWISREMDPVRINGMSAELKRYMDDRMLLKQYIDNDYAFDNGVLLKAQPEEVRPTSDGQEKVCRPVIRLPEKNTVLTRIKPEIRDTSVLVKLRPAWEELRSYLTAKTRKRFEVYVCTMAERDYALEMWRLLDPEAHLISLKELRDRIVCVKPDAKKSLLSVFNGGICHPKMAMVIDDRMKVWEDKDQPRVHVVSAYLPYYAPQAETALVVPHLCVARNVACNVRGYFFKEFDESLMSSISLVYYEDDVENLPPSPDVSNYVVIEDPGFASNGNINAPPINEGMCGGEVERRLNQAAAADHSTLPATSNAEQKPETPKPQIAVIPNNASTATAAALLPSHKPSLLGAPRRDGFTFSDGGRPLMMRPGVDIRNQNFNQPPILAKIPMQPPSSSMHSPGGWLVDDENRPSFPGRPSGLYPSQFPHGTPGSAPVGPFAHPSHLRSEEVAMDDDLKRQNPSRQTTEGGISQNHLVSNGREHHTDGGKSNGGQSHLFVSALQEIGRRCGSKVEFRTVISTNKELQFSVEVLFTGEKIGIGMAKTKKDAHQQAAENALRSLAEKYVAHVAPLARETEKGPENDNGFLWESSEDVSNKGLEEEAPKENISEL

[2] = target: T2, AIPP2, full-length, yeast two-hybrid fusion (Arabidopsis) (UniProt F4IYH6); assay: as above
T2 sequence: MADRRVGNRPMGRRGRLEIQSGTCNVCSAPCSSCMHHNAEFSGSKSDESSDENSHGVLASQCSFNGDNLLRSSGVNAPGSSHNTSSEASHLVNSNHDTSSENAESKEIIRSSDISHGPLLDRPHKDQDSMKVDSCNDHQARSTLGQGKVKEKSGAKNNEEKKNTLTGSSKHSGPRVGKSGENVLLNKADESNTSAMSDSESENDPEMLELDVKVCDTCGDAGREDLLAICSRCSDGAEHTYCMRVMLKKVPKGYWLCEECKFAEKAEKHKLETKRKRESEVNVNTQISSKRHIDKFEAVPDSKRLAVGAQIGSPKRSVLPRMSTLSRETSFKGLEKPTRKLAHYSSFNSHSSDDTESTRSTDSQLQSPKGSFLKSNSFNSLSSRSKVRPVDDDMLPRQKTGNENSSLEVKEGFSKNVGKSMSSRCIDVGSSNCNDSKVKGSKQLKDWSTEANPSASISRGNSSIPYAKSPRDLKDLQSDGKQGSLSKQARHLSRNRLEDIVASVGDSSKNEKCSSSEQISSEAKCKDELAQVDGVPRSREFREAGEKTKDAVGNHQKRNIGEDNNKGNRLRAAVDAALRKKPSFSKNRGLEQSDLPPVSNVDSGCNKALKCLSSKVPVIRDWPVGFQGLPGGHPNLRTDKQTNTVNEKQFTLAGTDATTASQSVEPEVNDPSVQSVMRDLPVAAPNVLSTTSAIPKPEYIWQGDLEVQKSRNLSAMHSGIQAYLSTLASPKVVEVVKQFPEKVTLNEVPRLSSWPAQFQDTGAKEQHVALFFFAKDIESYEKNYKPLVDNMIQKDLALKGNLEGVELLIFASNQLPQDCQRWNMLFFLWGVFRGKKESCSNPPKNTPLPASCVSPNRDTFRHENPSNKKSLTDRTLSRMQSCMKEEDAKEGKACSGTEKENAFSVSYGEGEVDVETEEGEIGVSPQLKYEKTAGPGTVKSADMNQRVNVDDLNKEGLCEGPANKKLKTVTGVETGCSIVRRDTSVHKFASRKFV

[3] = target: T3, AIPP3, full-length, yeast two-hybrid fusion (Arabidopsis) (UniProt Q8RXT5); assay: as above
T3 sequence: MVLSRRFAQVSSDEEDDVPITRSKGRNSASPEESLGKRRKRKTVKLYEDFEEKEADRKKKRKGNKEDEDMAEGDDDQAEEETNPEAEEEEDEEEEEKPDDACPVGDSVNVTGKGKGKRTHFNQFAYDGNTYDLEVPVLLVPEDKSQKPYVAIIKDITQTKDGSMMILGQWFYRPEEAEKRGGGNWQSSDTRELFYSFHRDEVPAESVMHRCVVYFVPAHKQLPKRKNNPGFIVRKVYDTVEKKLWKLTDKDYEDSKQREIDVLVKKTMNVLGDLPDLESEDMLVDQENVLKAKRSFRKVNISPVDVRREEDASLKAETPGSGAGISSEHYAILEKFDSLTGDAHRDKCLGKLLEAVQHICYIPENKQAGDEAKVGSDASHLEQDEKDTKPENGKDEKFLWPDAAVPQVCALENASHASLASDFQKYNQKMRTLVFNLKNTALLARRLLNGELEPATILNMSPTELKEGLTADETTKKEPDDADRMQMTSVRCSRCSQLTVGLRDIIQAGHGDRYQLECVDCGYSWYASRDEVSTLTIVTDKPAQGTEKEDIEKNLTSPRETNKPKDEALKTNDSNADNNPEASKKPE

[4] = target: T4, AIPP2 fused with split luciferase (Arabidopsis) (UniProt F4IYH6); assay: split reporter; split luciferase, constructs co-infiltrated into Nicotiana benthamiana leaves, luciferase activity 2 days after infiltration, CCD camera
T4 sequence: T2 sequence

[5] = target: T5, CPL2 fused with split luciferase (Arabidopsis) (UniProt Q5YDB5); assay: as above
T5 sequence: T1 sequence

[6] = target: T6, AIPP3 fused with split luciferase (Arabidopsis) (UniProt Q8RXT5); assay: as above
T6 sequence: T3 sequence

B1: PAIPP2, full-length, yeast two-hybrid fusion (protein, UniProt F4KE59 1-1311)
chain: MADRRVGKRQMGQRGFSKVESGTCNVCSAPCSSCMHRNVGFTGSKLDESSDENCHGVVGSQCSVNEDDLLPSSMVNAHKSLNNTASEASNLVNSSHDALSENAESKETIRCSGISDDSGAAAMTSKPSLSGSRMKHKVSASANMLDQSSNCIEDQEDGILSADRAKQLKSGCSNNEIGNKDLADGSALNSDPIPGGSRKDEVKLESLQNPSSNHDDRVSSEKGNFKEKSRPGGNKERQEPSVEGSTRSGENRKDGKSSKSSSSNSSAVSESESDDSEMVEHDVKVCDICGDAGREDLLAICSGCSDGAEHTYCMREMLDEVPEGDWLCEECAEEAEKQKQEAKRKRETEVTFNTYSSGKRHADKIEAAPDAKRQVVEASTGSPKKSILPRVGALSRETSFKGLDRLRGKLNHQTSFSDDTESARSAGSQLQPPKGAFLKSSSFNCSSSKPKVQLMDDAIHPRQKTGKEDTALDLKVGGFRNVGKSMPSRTTDAGNSGGSDSQAKMLGSKVYHSQEGKSLKQVKDRNREANASASSIDQKLKSRGNSSVSHANNNRDLKGLQSDGKRGNLTKQVSNLSRNRLENSVVSGGDISTNEKCSASEQSSSQADCKDELPSTSCTGEGMPNHGTVALQDGLPRSRVPREVGKKSKEAFSKRQRSSLLAGAKGLPSSQKGGQTAESSDTSGVSDSDLSTTKNVKEDLNKGNRLRAAVDAALRKKPSFGKNRVLEQSDASLVANVDSSSEKTLRNQLPSKMHKNHVSHEGLQGGHPILWPTSDPYKQTIVTNEKQLIFPGADTIPSRLVEPEVSFPAVKPVMRDLPLVPSPVMLRSSAIPDHEFIWQGDLEVRKIINQSAMHSGIQAHLSTLASPRVAEVVNKFPETFSLNEVPRKSTWPTQFEKLGTKEAHIALFFFAKDTESYERNYKPLVDNMIKNDLALKGNLDNVDLLIFASNQLPSNCQRWNMLYFLWGVFQGRKETNPQKNTSLPTSNVLPRDRDPKELCQTSSPSKHLEKGSSLRESSSNGIETRNGTDARSHENPNNRESSIERSPSKKEDIALKVEEAGVNHIPPQVTGSNSGDSLVRKVQKVEEQELGGRKDLPLTVMGSGIQSHGQDNPLEKDLNSSQASHRKRPLWELSNPANENSSAINQKVELNNDGLCEGSPNKKLKTENGSSSLCRDTSGHDSGIMKKSPKVVFPLDLNDDSEMVDNLSPLGNDENNNNRRLISGTVPNLELALGAEETTEATMGLLPFLSRSSNSGEQSNNSMNKEKQKADEEEEDDAEVAASLSLSLSFPGTEERKNVNTPLFLFRDLPR
binding [1]: binds | binding [2]: no binding | binding [3]: binds

B2: PAIPP2 fused with split luciferase (protein, UniProt F4KE59 1-1311)
chain: B1 chain
binding [4]: no binding | binding [5]: binds | binding [6]: binds
